Measured values published in PMC10906927, “Structure of the PCNA unloader Elg1-RFC” (Science Advances, 2024).
Results are given in words; binding and its absence hold for the method and conditions named. Some results given as binding are weak or reduced against the parent protein; the word gives no strength.

Experiments:
Experiment in all cases: cryo-EM structure; contacts between subunits inside the Elg1-RFC pentamer, which was co-expressed in E. coli and purified as one complex; seen in Elg1-RFC alone and with PCNA; ATPgammaS in Elg1, Rfc2, Rfc3, Rfc4, ADP in Rfc5; both purified
[1] = molecular target: T1, Rfc3, subunit of Elg1-RFC (S. cerevisiae, UniProt P38629 1-340)
T1 construct: Rfc3, S. cerevisiae replication factor C subunit 3; Stood in the assay as a subunit of the Elg1-RFC pentamer; source: E. coli BLR(DE3), co-expressed with Elg1 and Rfc2, 4, 5, purified as Elg1-RFC (anti-FLAG resin, MonoS)
T1 sequence: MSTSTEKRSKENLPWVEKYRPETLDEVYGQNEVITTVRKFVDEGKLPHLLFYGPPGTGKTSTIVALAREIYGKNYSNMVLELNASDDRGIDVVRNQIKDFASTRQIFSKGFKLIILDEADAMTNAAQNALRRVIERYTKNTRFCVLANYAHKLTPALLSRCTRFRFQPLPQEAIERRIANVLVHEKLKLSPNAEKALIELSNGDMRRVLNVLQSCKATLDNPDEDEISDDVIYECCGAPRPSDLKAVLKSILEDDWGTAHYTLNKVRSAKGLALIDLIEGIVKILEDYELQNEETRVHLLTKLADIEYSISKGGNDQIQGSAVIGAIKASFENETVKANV

[2] = molecular target: T2, Rfc4, subunit of Elg1-RFC (S. cerevisiae, UniProt P40339 1-323)
T2 construct: Rfc4, S. cerevisiae replication factor C subunit 4; Stood in the assay as a subunit of the Elg1-RFC pentamer; source: E. coli BLR(DE3), co-expressed with Elg1 and Rfc2, 3, 5, purified as Elg1-RFC (anti-FLAG resin, MonoS)
T2 sequence: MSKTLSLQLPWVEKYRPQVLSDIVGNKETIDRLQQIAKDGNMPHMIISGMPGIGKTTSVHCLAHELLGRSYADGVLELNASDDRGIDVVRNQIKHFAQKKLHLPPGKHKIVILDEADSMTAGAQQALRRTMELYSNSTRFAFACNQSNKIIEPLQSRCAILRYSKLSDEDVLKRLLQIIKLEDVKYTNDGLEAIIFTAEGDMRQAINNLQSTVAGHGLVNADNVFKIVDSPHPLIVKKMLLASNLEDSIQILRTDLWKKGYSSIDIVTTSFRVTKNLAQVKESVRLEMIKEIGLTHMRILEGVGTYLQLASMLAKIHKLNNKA

[3] = molecular target: T3, Rfc5, subunit of Elg1-RFC (S. cerevisiae) (UniProt P38251)
T3 sequence: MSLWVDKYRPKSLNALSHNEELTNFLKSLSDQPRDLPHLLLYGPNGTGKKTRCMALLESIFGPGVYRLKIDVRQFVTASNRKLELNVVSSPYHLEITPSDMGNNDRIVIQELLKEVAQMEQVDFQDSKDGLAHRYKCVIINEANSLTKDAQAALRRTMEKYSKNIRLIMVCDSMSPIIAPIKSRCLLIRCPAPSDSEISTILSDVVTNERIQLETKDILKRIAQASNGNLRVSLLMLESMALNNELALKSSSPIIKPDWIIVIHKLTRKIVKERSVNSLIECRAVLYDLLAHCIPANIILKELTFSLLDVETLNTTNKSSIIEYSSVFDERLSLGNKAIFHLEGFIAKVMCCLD

Measured: binding

B1: Elg1 (enhanced levels of genome instability 1), subunit of Elg1-RFC (protein, UniProt Q12050 1-791)
chain: MKRHVSLSDILTGNKRKVRRQDALQITIDDENDTESGTFDARTAKHDDSSVIFLNHSVVKPIEAVSTNHKSAKEFLMTKRTKEKCDDDDDDLIVISDKSPKSETNCSKIALSQEHEDDISIISTSRIKSSLLNERASKIKNFLKHETTDTFKRLNSISKLNEIEPPLPLHQSIFPVGDKELSDRSVDIPLPFRTIPPLNHNFLPSDYESLKDKNSASCIPVRYQAPVLLGTNIKRNTTLTWPQLFKPVTLKQVLIEPKLKLRIKNWIETSFHTLEKPTLRNRLLNRINPNKQQGSGDELANFIVPDLEEDENLRPDFYRNGEANSSLSEFVPLMILHGNSIGKKTLIQTIMREIAGDDNSYQIYEVNSNMNRSKKDLLDILLDFTTTHYVKDSSKRKSDYGLVLFNDVDVLFKEHDRGYWAMISKLCEFSRRPLVLTCKDLSLVPSELIALASEQNSLFHTKKISTSTVYAFLTKYLKSLEIEVCDDWLRDVVKQNNADIRKCLMHLQFWCVDTEADLISSKNRLPVLTSTLGSSVKDISQLTDLLSINDVIGQATLNRSMVRQEIDSTTMTPEKVNTFQDQNLDDEMKLKFDYVIDYKLHLNDPNRQPLLPFELNIYQHIQEQLEARYSYVREANHRLDNEYLVNRFKKMTESTLNFLASRIPKYDHLQSARRTRNSKKISDILNQFKGIYNDETLNENAEIDLLSATTQQIKAEINPFVFEIAKSDANVKNENKQIFELHSENVSERRYKDLVYQLSQEGVLKNVWFNADPSIVVRKWEHLHSGFSKNK
binds: all assays above
